Reference: US6537551B2, “Anti-tumor agent comprising salmosin as an active ingredient” (priority 1998, dated 2003)
At least one peptide structure holds a part that was inferred or is arguable (an end, a ring closure or a residue).

How the values were obtained:
[1] = tested on: BCE cell adhesion to vitronectin (αvβ3 integrin); assay: BCE cell adhesion to vitronectin; type: cell-based, bovine; conditions: cells preincubated 20 min with test substance; vitronectin 0.5 μg/well
[2] = tested on: BCE cell adhesion to Salmosin (αvβ3 integrin); assay: BCE cell adhesion to Salmosin-coated plate; type: cell-based, bovine; conditions: cells preincubated 20 min with test substance; Salmosin 1 μg/well

N=C(N)NCCC[C@H](NC(=O)CN)C(=O)NCC(=O)N[C@@H](CC(=O)O)C(=O)N[C@@H](CO)C(=O)N1CCC[C@H]1C(=O)O [GRGDSP]
adhesion of BCE cell to vitronectin [1]: able to prevent | adhesion of BCE cell to Salmosin [2]: able to prevent
